# The list shows a part of the results. Single values are uncertain here, since repeats match poorly.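 Free-swimming zebrafish larvae were assessed for O-bend response probability to dark flashes (naive: first five; training: remaining flashes across four 60-flash blocks; test: later 60-flash block) and for OMR turning toward alternating leftward/rightward LED motion. Six treated larvae were compared against sixty 0.1% DMSO controls; hits required |SSMD|≥2.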
# Tests used:
# Conditions in all cases: 10 µM; pre-incubation: 30-90 min
# [1] = tested on: Danio rerio larvae (5 dpf, TLF); experiment: OMR-Perf (SSMD vs DMSO vehicle); higher = higher than vehicle (e.g. higher dark-flash O-bend response probability, or better optomotor performance)
# [2] = tested on: Danio rerio larvae (5 dpf, TLF); experiment: Prob-Test (SSMD vs DMSO vehicle); higher = higher than vehicle (e.g. higher dark-flash O-bend response probability, or better optomotor performance)
# [3] = tested on: Danio rerio larvae (5 dpf, TLF); experiment: Prob-Naive (SSMD vs DMSO vehicle); higher = higher than vehicle (e.g. higher dark-flash O-bend response probability, or better optomotor performance)
# [4] = tested on: Danio rerio larvae (5 dpf, TLF); experiment: Prob-Train (SSMD vs DMSO vehicle); higher = higher than vehicle (e.g. higher dark-flash O-bend response probability, or better optomotor performance)
Structure (SMILES),OMR-Perf [1],Prob-Test [2],Prob-Naive [3],Prob-Train [4]
CC1(C)S[C@H]2[C@@H](NC(=O)[C@@H](NC(=O)N3CCN(S(C)(=O)=O)C3=O)c3ccccc3)C(=O)N2[C@H]1C(=O)[O-].[Na+] [Mezlocillin Sodium],-0.191,0.199,0.287,0.135
O=C(NC(NC(=S)Nc1ccc(F)c([N+](=O)[O-])c1)C(Cl)(Cl)Cl)C(c1ccccc1)c1ccccc1 (stereo not given),0.107,0.603,0.319,0.488
CCCCCCCCCC(=O)N[C@@H](Cc1c[nH]c2ccccc12)C(=O)N[C@H](CC(N)=O)C(=O)N[C@@H](CC(=O)O)C(=O)N[C@@H]1C(=O)NCC(=O)N[C@H](CCCN)C(=O)N[C@@H](CC(=O)O)C(=O)N[C@@H](C)C(=O)N[C@@H](CC(=O)O)C(=O)NCC(=O)N[C@H](CO)C(=O)N[C@@H]([C@@H](C)CC(=O)O)C(=O)N[C@@H](CC(=O)c2ccccc2N)C(=O)O[C@@H]1C [Daptomycin],-0.301,0.712,-0.202,0.255
Nc1nc(N)nc(-c2cc(Cl)ccc2Cl)n1 [Irsogladine],-0.358,-0.119,0.759,-0.371
N#CC[C@@H](C1CCCC1)n1cc(-c2ncnc3[nH]ccc23)cn1,-0.189,0.0152,-0.499,0.0781
O=C(Nc1c(Cl)cncc1Cl)c1ccc(OC(F)F)c(OCC2CC2)c1 [Roflumilast],-0.471,-0.474,-0.326,-1.45
COc1cc(Nc2ncc(F)c(Nc3ccc4c(n3)N(COP(=O)(O)O)C(=O)C(C)(C)O4)n2)cc(OC)c1OC [Fostamatinib (R788)],-0.397,-0.216,0.285,-0.215
Nc1nc(Cl)nc2c1ncn2[C@H]1C[C@H](O)[C@@H](CO)O1 [Cladribine],0.0236,0.863,-0.0954,0.148
CC(C)(C)c1cc(C(C)(C)C)c(NC(=O)c2c[nH]c3ccccc3c2=O)cc1O [Ivacaftor (VX-770)],-0.151,-0.28,0.0343,0.0758
CC(C)[C@H](N)C(=O)OCCOCn1cnc2c(=O)[nH]c(N)nc21.Cl [Valaciclovir HCl],0.116,0.322,-0.311,-0.181
CCN1CCN(c2cc3c(cc2F)c(=O)c(C(=O)O)cn3C2CC2)CC1 [Enrofloxacin],-0.0564,-0.199,0.204,0.24
COCCc1ccc(OCC(O)CNC(C)C)cc1.COCCc1ccc(OCC(O)CNC(C)C)cc1.O=C(O)[C@H](O)[C@@H](O)C(=O)O (stereo not given) [Metoprolol Tartrate],0.556,-0.0346,0.511,0.328
CCCCN(CCCC)CCCOC(=O)c1ccc(N)cc1 [Butacaine],-0.726,0.174,-0.154,0.31
COC[C@H](NC(=O)c1cnc(C)s1)C(=O)N[C@@H](COC)C(=O)N[C@@H](Cc1ccccc1)C(=O)C1(C)CO1 (stereo not given in full) [Oprozomib (ONX 0912)],-0.0535,-0.534,-0.117,-0.185
CCC(CC)(NC(=O)C(C)C)C(=O)N[C@@H](CCCNC(=N)N)C(=O)NC1(C(=O)NC(c2ccc(F)cc2)c2ccc(F)cc2)CCCC1,0.351,0.573,-0.314,0.175
CCn1c(-c2nonc2N)nc2c(C#CC(C)(C)O)ncc(OC[C@H]3CCCNC3)c21,0.319,-0.0845,0.0475,-0.0394
Nc1ccn([C@H]2CC[C@@H](CO)O2)c(=O)n1 [Zalcitabine],0.342,0.397,0.549,0.0486
CCn1cc(C(=O)O)c(=O)c2cc(F)c(N3CCNC(C)C3)c(F)c21.Cl (stereo not given) [Lomefloxacin HCl],0.325,0.168,0.402,0.365
CO[C@H]1C[C@@H]2CC[C@@H](C)[C@@](O)(O2)C(=O)C(=O)N2CCCC[C@H]2C(=O)O[C@H]([C@H](C)C[C@@H]2CC[C@@H](OCCO)[C@H](OC)C2)CC(=O)[C@H](C)/C=C(\C)[C@@H](O)[C@@H](OC)C(=O)[C@H](C)C[C@H](C)/C=C/C=C/C=C/1C [Everolimus (RAD001)],0.0235,0.37,-0.29,0.299
O=c1c(O)c(-c2ccc(O)cc2)oc2cc(O)cc(O)c12 [Kaempferol],0.223,0.0426,0.0816,-0.782

# Some of these compounds in order of molar mass, rising:
Structure (SMILES),OMR-Perf [1],Prob-Test [2],Prob-Naive [3],Prob-Train [4]
Nc1ccn([C@H]2CC[C@@H](CO)O2)c(=O)n1 [Zalcitabine],0.342,0.397,0.549,0.0486
CCCCN(CCCC)CCCOC(=O)c1ccc(N)cc1 [Butacaine],-0.726,0.174,-0.154,0.31
CCCCCCCCCC(=O)N[C@@H](Cc1c[nH]c2ccccc12)C(=O)N[C@H](CC(N)=O)C(=O)N[C@@H](CC(=O)O)C(=O)N[C@@H]1C(=O)NCC(=O)N[C@H](CCCN)C(=O)N[C@@H](CC(=O)O)C(=O)N[C@@H](C)C(=O)N[C@@H](CC(=O)O)C(=O)NCC(=O)N[C@H](CO)C(=O)N[C@@H]([C@@H](C)CC(=O)O)C(=O)N[C@@H](CC(=O)c2ccccc2N)C(=O)O[C@@H]1C [Daptomycin],-0.301,0.712,-0.202,0.255
